No constants are given. Whether binding was seen depends on the method and setting. In cells and extracts the contact can be indirect. Here binding means that the protein was enriched with, or labelled near, the bait; the list need not be complete. Tags and fused reporters may be left off the sequences shown.
Key:
[1] = target: T1, MIC19 C-terminally tagged with HA-FLAG (human) (UniProt Q9NX63); experiment: affinity purification with mass spectrometry; validation: baits MIC60, MTX2 and MIC19 (HA-FLAG) expressed in HCT116 cells, immunopurified with α-HA; CompPASS scoring
T1 sequence: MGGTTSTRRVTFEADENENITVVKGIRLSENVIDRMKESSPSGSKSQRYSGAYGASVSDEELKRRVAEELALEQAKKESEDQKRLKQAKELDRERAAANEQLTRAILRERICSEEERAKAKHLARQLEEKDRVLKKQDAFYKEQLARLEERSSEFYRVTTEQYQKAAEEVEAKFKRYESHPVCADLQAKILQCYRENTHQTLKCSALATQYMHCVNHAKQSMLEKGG

Sequences of proteins named here, by UniProt entry; tags and fusion partners are left off.
UniProt Q5XKP0: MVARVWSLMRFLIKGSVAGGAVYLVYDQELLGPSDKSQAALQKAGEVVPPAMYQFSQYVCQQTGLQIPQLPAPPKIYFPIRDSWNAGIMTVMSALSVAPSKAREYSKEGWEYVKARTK

[2] = target: T2, MIC60 C-terminally tagged with HA-FLAG (human) (UniProt Q16891); experiment: as above
T2 sequence: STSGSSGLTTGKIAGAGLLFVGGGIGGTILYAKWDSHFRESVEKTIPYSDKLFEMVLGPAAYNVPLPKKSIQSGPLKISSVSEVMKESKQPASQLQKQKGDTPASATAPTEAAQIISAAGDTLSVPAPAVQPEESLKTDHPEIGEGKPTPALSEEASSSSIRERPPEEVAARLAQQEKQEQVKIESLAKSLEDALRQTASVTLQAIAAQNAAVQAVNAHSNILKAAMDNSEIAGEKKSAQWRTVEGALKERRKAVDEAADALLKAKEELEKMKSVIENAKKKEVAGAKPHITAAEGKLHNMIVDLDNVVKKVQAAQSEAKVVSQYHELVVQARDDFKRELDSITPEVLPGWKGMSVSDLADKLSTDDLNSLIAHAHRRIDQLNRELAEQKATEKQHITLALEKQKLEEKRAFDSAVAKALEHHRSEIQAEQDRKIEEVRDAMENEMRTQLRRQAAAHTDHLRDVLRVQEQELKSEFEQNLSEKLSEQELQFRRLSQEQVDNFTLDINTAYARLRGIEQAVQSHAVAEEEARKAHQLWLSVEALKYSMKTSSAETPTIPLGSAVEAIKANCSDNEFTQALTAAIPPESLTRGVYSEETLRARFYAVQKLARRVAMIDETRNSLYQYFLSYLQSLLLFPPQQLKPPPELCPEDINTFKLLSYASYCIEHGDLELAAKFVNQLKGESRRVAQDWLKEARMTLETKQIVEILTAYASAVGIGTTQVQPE

[3] = target: T3, MTX2 C-terminally tagged with HA-FLAG (human) (UniProt O75431); experiment: as above
T3 sequence: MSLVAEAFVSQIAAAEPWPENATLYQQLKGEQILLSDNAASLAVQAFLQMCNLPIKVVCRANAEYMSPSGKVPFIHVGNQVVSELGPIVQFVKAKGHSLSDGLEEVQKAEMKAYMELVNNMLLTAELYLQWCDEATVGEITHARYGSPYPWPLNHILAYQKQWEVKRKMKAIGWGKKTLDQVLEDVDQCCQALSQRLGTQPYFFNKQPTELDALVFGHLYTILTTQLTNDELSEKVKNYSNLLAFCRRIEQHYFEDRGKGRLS

[4] = target: T1, MIC19 C-terminally tagged with HA-FLAG (human); experiment: affinity purification with mass spectrometry; C-terminally HA-FLAG-tagged baits stably expressed in 293T cells; lysis in 1% digitonin; purified on α-FLAG beads; complexes trypsinized; CompPASS scoring (network of Figure 1B)
[5] = target: T4, MIC27 C-terminally tagged with HA-FLAG (human) (UniProt Q6UXV4); experiment: as above
T4 sequence: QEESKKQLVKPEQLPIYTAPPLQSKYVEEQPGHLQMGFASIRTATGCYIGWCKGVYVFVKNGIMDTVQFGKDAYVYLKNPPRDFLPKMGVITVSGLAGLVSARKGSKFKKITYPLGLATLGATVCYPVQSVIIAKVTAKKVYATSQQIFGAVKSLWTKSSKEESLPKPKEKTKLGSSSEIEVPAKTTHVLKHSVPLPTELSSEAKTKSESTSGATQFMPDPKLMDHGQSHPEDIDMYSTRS

[6] = target: T2, MIC60 C-terminally tagged with HA-FLAG (human); experiment: as above
[7] = target: T3, MTX2 C-terminally tagged with HA-FLAG (human); experiment: as above

binding [1]: binds
binding [2]: binds
binding [3]: binds
binding [4]: binds
binding [5]: binds
binding [6]: binds
binding [7]: binds
Substance: QIL1 (C19orf70), endogenous (from UniProt Q5XKP0 1-118)
